# Source: paper PMC5014156
# The chains behind the UniProt entries cited, without tags or fusion partners.
# UniProt Q93Z00: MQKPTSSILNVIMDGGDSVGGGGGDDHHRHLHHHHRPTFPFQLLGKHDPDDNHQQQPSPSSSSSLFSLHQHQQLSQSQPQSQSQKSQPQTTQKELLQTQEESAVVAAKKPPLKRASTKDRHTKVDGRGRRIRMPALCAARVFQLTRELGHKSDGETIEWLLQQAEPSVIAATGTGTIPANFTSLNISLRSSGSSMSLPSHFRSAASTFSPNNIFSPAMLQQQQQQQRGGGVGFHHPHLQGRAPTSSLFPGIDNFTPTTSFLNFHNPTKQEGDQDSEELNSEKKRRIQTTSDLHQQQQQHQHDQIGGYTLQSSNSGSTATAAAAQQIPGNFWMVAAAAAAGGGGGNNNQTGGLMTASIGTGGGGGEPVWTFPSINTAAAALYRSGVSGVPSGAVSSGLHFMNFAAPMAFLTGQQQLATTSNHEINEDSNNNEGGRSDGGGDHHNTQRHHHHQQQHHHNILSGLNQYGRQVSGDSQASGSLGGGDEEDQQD
# B1: Arabidopsis TCP4 (protein, UniProt Q8LPR5 1-420)
# chain: MSDDQFHHPPPPSSMRHRSTSDAADGGCGEIVEVQGGHIVRSTGRKDRHSKVCTAKGPRDRRVRLSAHTAIQFYDVQDRLGFDRPSKAVDWLIKKAKTSIDELAELPPWNPADAIRLAAANAKPRRTTAKTQISPSPPPPQQQQQQQQLQFGVGFNGGGAEHPSNNESSFLPPSMDSDSIADTIKSFFPVIGSSTEAPSNHNLMHNYHHQHPPDLLSRTNSQNQDLRLSLQSFPDGPPSLLHHQHHHHTSASASEPTLFYGQSNPLGFDTSSWEQQSSEFGRIQRLVAWNSGGGGGATDTGNGGGFLFAPPTPSTTSFQPVLGQSQQLYSQRGPLQSSYSPMIRAWFDPHHHHQSISTDDLNHHHHLPPPVHQSAIPGIGFASGEFSSGFRIPARFQGQEEEQHDGLTHKPSSASSISRH
# B2: Arabidopsis TCP3 (protein, UniProt Q9MAH8 1-391)
# chain: MAPDNDHFLDSPSPPLLEMRHHQSATENGGGCGEIVEVQGGHIVRSTGRKDRHSKVCTAKGPRDRRVRLSAPTAIQFYDVQDRLGFDRPSKAVDWLITKAKSAIDDLAQLPPWNPADTLRQHAAAAANAKPRKTKTLISPPPPQPEETEHHRIGEEEDNESSFLPASMDSDSIADTIKSFFPVASTQQSYHHQPPSRGNTQNQDLLRLSLQSFQNGPPFPNQTEPALFSGQSNNQLAFDSSTASWEQSHQSPEFGKIQRLVSWNNVGAAESAGSTGGFVFASPSSLHPVYSQSQLLSQRGPLQSINTPMIRAWFDPHHHHHHHQQSMTTDDLHHHHPYHIPPGIHQSAIPGIAFASSGEFSGFRIPARFQGEQEEHGGDNKPSSASSDSRH
# B3: Arabidopsis TCP10 (protein, UniProt O82277 1-361)
# chain: MGLKGYSVGEGGGEIVEVQGGHIIRATGRKDRHSKVFTSKGPRDRRVRLSAHTAIQFYDVQDRLGYDRPSKAVDWLIKKAKTAIDKLELGETTTTTTRQEPVNTKPESPTLVFQRENNDQTQFVAANLDPEDAMKTFFPATTTTNGGGGTNINFQNYPHQDDNNMVSRTTTPPPNLSQDLGLSLHPFQGNNNTVVVPETNNFTTTHFDTFGRISGWNHHDLTMTSSSSSEHQQQEQEERSNGGFMVNHHPHHHHHQPSMMTLLNSQQQQVFLGGQQQQQQRGTLQSSLFPHSFRSWDHHQTTSDHHHHQNQASSMFASSSQYGSHGMMMMQGLSFPNTTRLLHGEEATQPNSSSSPPNSHL
# Molecular target: PePCF10 (bait in pDEST_GBKT7) (Phalaenopsis equestris)
# Assay: two-hybrid; yeast two-hybrid; PePCF10 bait in pDEST_GBKT7, Arabidopsis TCP preys in pDEST_GAD424, Y2H Gold yeast strain; growth on test medium lacking histidine, leucine and tryptophan
row,binding,Molecule
1,binds,Arabidopsis TCP14 (from UniProt Q93Z00 1-489)
2,binds,B1
3,binds,B2
4,binds,B3

# Results are given in words; binding and its absence hold for the method and conditions named. A result given as binding can be weak or reduced; the word gives no strength.
